At least one compound was matched to its structure with a doubt left.
Experiment: Probability model of serum T Cavg and Cmax distributions (titration dosing modeling)
Set-up: species or system hypogonadal men
Conditions: nominal model parameter, 200 mg T BID as TU, log-normal distribution
Description: The fractions of the modeled patient population having their serum T Cavg and Cmax values falling within and/or outside of pre-specified limits and categories, as predicted from the probability model, were monitored and tabulated. The categories of interest were those identified by the FDA in its proposed guidelines for safe and effective hormone replacement therapy, as summarized in Table 2.
The probability model was based on the pharmacokinetic results obtained from the hypogonadal patient population that participated in the two multi-dose TU treatments in study LOT-A. As noted previously, 29 hypogonadal males participated in the study, 28 of them completed Treatment Period 1 (300 mg T, as TU, BID) and 24 of them completed Treatment Period 3 (200 mg T, as TU, BID).
Initially, the distribution of the calculated values of Cavg in the treated population was characterized by a mean and standard deviation assuming that the distribution fit either a normal distribution, or a log-normal distribution. […]
Second, a relationship was identified between serum T Cavg and Cmax using linear regression, such that given an hypothesized Cavg value, an expected value of Cmax could be determined (FIG. 5). […]
Fourth, the fraction of a treated population that fell within one of the 7 bins identified in Table 1 was calculated by: • 1. […]

## CCCCCCCCCCC(=O)O[C@H]1CC[C@H]2[C@@H]3CCC4=CC(=O)CC[C@]4(C)[C@H]3CC[C@]12C [TU, testosterone undecanoate]
  Mean Ln(Cavg) (CV): Ln(473) (6%)
